Results reported in patent US20100233154A1, “TARGETED BINDING AGENTS DIRECTED TO HEPARANASE AND USES THEREOF 463” (MedImmune Limited, priority 2008, published 2010).
Results are given in words; binding and its absence hold for the method and conditions named. Some binding calls cover weakened binding; strength is not graded here.

B1: monoclonal antibody 10E9.1 (antibody, V domains shown)
VH: QVQLVQSGAEVKKPGASVKVSCKVSGYSLTELSIHWVRQAPGKGLEWMGGFDPEDGEIIFAQKFQGRVTLTEDISLDTAYMEVSSLRSEDTAVYYCATEGHDSGDYVGYYYYGLDVWGQGTTVTVSS
VL: DIQMTQSPSSLSASVGDRVTITCRASQDIRNFLAWYQQKPGKLPKLLIYAASTLQSGVPSRFSGSGSGTDFTLTISSLQPEDVASYYCQSHNSVPFTFGPGTKVDIR
B2: 10E9.2 (antibody, V domains shown)
VH: B1 VH
VL: B1 VL

Experiments:
[1] = biological target: T1, murine cell surface heparanase on B16F10 AP3 murine melanoma cells (murine) (UniProt Q6YGZ1); assay: FACS on B16F10 AP3 cells, antibody 5 or 10 µg per ml, AlexaFluor 488 anti-human IgG
T1 sequence (looked up): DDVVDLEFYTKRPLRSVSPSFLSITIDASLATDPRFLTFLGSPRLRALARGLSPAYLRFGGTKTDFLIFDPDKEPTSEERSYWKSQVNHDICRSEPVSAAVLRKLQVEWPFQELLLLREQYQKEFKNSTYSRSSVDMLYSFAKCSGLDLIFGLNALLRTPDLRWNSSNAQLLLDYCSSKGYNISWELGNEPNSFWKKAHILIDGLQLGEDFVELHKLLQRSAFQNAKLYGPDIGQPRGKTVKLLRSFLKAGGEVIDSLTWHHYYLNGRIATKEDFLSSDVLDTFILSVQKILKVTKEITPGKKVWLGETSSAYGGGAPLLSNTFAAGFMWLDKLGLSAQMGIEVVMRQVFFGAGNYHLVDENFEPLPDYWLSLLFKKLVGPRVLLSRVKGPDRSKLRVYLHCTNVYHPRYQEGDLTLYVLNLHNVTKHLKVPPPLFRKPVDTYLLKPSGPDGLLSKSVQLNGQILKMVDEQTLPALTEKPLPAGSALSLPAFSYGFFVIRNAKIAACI

[2] = biological target: T2, human cell surface heparanase on human tumour cells (human) (UniProt Q9Y251); assay: FACS on HT1080 and HCT116 cells, antibody 5 or 10 µg per ml, AlexaFluor 488 anti-human IgG
T2 sequence (looked up): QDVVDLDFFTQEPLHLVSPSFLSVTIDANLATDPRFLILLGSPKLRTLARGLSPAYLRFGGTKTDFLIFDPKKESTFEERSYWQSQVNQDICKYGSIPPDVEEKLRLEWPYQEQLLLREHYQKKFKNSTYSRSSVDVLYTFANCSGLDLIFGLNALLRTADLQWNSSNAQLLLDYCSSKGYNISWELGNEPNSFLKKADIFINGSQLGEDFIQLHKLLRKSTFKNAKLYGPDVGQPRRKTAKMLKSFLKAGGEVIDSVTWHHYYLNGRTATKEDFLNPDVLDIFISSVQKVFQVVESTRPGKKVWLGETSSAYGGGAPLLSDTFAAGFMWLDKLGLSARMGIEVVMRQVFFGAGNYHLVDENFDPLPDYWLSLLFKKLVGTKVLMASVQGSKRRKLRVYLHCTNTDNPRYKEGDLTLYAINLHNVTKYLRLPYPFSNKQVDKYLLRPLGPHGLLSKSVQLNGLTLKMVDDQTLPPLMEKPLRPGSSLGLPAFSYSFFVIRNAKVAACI

[3] = biological target: T2, human cell surface heparanase on human tumour cells (human); assay: FACS on HT1080 human fibrosarcoma cells, AlexaFluor 488 anti-human IgG, % gated events [panel HT1080 cells]
[4] = biological target: T2, human cell surface heparanase on human tumour cells (human); assay: FACS on HCT116 human colorectal tumour cells, AlexaFluor 488 anti-human IgG, % gated events [panel HCT116 cells]
[5] = biological target: T1, murine cell surface heparanase on B16F10 AP3 murine melanoma cells (murine); assay: FACS on B16F10 AP3 murine melanoma cells, AlexaFluor 488 anti-human IgG, % gated events [panel B16F10 AP3]

Binder	binding [1]	binding [2]	binding [3]	binding [4]	binding [5]
B1	binds	binds	binds	binds	–
B2	–	–	–	–	binds
